Assay results from patent publication US8367084B2, “Oily base for a cosmetic and cosmetic comprising the same” (Kokyu Alcohol Kogyo Co., Ltd., priority 2009, dated 2013).

Tested on: inner side of the upper arm
Experiment: Adhesion ability of the ester compound, evaluated by twenty panels
Type: in vivo
Conditions: for Adhesion ability: 0.1 g ester compound applied to the inner side of the upper arm, twenty panels; for adhesion to the skin / adhesion ability (in words): ester compound

Compound | Adhesion ability | adhesion to the skin / adhesion ability (in words)
pentaerythrityl tetraisostearate [Com. Prep. Ex. 3] | M (from 6 to 9 panels evaluated the compound as “good adhesion ability”) | not good
CCCCC(CC)C(=O)OCC(COC(=O)C(CC)CCCC)(COC(=O)C(CC)CCCC)COC(=O)C(CC)CCCC (stereo not shown) [Com. Prep. Ex. 2, pentaerythrityl tetraethylhexanoate] | B (not more than five panels evaluated the cosmetic as “good adhesion ability”) | poor
